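UCH-1 human chordoma cells treated alongside a fixed auranofin and topoisomerase-inhibitor mix; viability read as CellTiter-Glo luminescence after 48 hours. Each compound was titrated across a series from about 0.000059 to 46 µM. The number is the AC50 from the fitted dose-response curve, and a lower value marks a more potent compound. Calls come from an activity score set by curve class and fitted AC50: 40 to 100 counts as active, 1 to 39 inconclusive, and 0 inactive.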

Values are in µM. All entries here are filed as inconclusive. Only part of the assay is shown, chiefly results filed as inconclusive. Potencies fitted to partial, single-point or poorly fitting curves are rough. Some entries filed as inconclusive have a full curve. The first word of each remark tells which way the curve ran; it can be opposite to the aim of the assay. Activity scores are not listed here.

Clc1ccc(C(OCCN2CCCCC2)c2ccccc2)cc1 (stereo unspecified) read potency 0.002 µM (cytotoxic, full curve, poor fit). Nc1ccn([C@@H]2O[C@H](CO)[C@H](O)C2(F)F)c(=O)n1 [with auranofin plus four topoisomerase inhibitors] read potency 0.3162 µM (cytotoxic, partial curve, poor fit). For NCCc1ccc(O)cc1 the result was potency 0.0355 µM (cytotoxic, full curve, poor fit). For OCCN1CCN(CCCN2c3ccccc3Sc3ccc(Cl)cc32)CC1 [with auranofin plus four topoisomerase inhibitors] the result was potency 3.162 µM (cytotoxic, full curve, poor fit). With C[C@H]1CC[C@@H]2[C@@H](C)[C@H]3[C@H](C[C@H]4[C@@H]5CC=C6CC(O[C@@H]7O[C@H](CO)[C@H](O)[C@H](O[C@@H]8O[C@H](CO)[C@@H](O)[C@H](O)[C@H]8O)[C@H]7O[C@H]7O[C@@H](C)[C@H](O)[C@@H](O)[C@H]7O)CC[C@]6(C)[C@H]5CC[C@]34C)N2C1 (stereo partly specified) the assay gave potency 39.81 µM (cytotoxic, partial curve, poor fit). With CC(CN(C)C)CN1c2ccccc2CCc2ccccc21 (stereo unspecified) [with auranofin plus four topoisomerase inhibitors] the assay gave potency 1 µM (cytotoxic, partial curve, poor fit).

CCCCCCCC(=O)O [with auranofin plus four topoisomerase inhibitors] read potency 0.0562 µM (cytotoxic, full curve, poor fit). NC(=NCCCCCCN=C(N)/N=C(\N)Nc1ccc(Cl)cc1)/N=C(\N)Nc1ccc(Cl)cc1 [with auranofin plus four topoisomerase inhibitors] gave potency 39.81 µM (cytotoxic, single point). NC(CS)C(=O)O (stereo unspecified) [with auranofin plus four topoisomerase inhibitors] gave potency 0.7943 µM (rising, full curve, poor fit). Oc1c(I)cc(Cl)c2cccnc12 [with auranofin plus four topoisomerase inhibitors] gave potency 3.548 µM (cytotoxic, full curve, poor fit). C[C@]12C[C@H](O)[C@H]3[C@@H](CCC4=CC(=O)CC[C@@]43C)[C@@H]1CC[C@@H]2C(=O)CO [with auranofin plus four topoisomerase inhibitors] read potency 0.2512 µM (cytotoxic, full curve, poor fit). With CCCCCCCCCC(=O)O[C@H]1CC[C@H]2[C@@H]3CCC4=CC(=O)CC[C@@H]4[C@H]3CC[C@]12C the assay gave potency 0.0008 µM (cytotoxic, full curve, poor fit).

For COc1ccc(CN2CCN(C(c3ccc(F)cc3)c3ccc(F)cc3)CC2)c(OC)c1OC [with auranofin plus four topoisomerase inhibitors] the result was potency 28.18 µM (cytotoxic, partial curve, poor fit). With CC[C@]1(O)C[C@@H]2CN(CCc3c([nH]c4ccccc34)[C@@](C(=O)OC)(c3cc4c(cc3OC)N(C)[C@H]3[C@@](O)(C(=O)OC)[C@H](OC(C)=O)[C@]5(CC)C=CCN6CC[C@]43[C@@H]65)C2)C1 [with auranofin plus four topoisomerase inhibitors] the assay gave potency 0.2818 µM (cytotoxic, full curve). With O=c1c(-c2ccccc2)c1-c1ccccc1 [with auranofin plus four topoisomerase inhibitors] the assay gave potency 31.62 µM (cytotoxic, single point). Cc1c(O)cccc1C(=O)N[C@@H](CSc1ccccc1)[C@H](O)CN1C[C@H]2CCCC[C@H]2C[C@H]1C(=O)NC(C)(C)C [with auranofin plus four topoisomerase inhibitors] gave potency 3.981 µM (cytotoxic, partial curve, poor fit). Result for COc1cc2c(cc1OC)[C@@H]1CC(=O)[C@@H](CC(C)C)CN1CC2 [with auranofin plus four topoisomerase inhibitors] was potency 0.0112 µM (cytotoxic, full curve, poor fit).

2 of the entries, repeated:

| structure | tested on / at | potency (µM) | curve as filed |
|---|---|---|---|
| `Nc1ccn([C@@H]2O[C@H](CO)[C@H](O)C2(F)F)c(=O)n1` | with auranofin plus four topoisomerase inhibitors | 0.3162 | cytotoxic, partial curve, poor fit |
| `Cc1c(O)cccc1C(=O)N[C@@H](CSc1ccccc1)[C@H](O)CN1C[C@H]2CCCC[C@H]2C[C@H]1C(=O)NC(C)(C)C` | with auranofin plus four topoisomerase inhibitors | 3.981 | cytotoxic, partial curve, poor fit |

The results are deposited in PubChem (AID1259355; NCATS, 2018).